Data published in PubChem BioAssay AID1347076 (National Center for Advancing Translational Sciences (NCATS), 2019).
Screen size: about 400,000 compounds; about 13,000 (3.2%) were called active. The shares of active, inactive and inconclusive entries below differ from those in the screen. The call rests on the fitted dose curve; in most records, active means well fitted cell-killing curve with a large enough effect; inconclusive means small, poorly fitted or top-dose-only effect, or effect the other way; inactive means flat fitted curve, though single readings scatter. Potencies of inconclusive entries are doubtful fits and often do not repeat.

Assay: qHTS assay for MDR1-selective chemotherapeutics: Primary screen using the drug-selected MDR subline cells KB-V1; further: nearly all actives have a fitted effect of over 60% in size
Conditions: KB-V1 MDR cells viability, CellTiter-Glo, 72 h; activity change, negative = cytotoxicity: at 46.1 µM (top of the series)
Procedure, shortened: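 KB-V1 cells (P-gp-expressing MDR subline of KB-3-1) in phenol-red-free DMEM with 10% FBS were exposed to library compounds over a concentration series for 72 h at 37 degrees C. Viability read by CellTiter-Glo luminescence; concentration-effect curves fitted after normalization.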
On the % scale 0 is the no-effect control and ±100 the full control effect; potency means the concentration at half of the fitted maximal effect.

SMILES	Potency	activity change, negative = cytotoxicity
COc1cc(C)ccc1S(=O)(=O)NC(=O)C1(C)CCN1C(=O)Cc1ccc(Cl)cc1Cl (configuration not stated)	inactive	–
COc1cc(NC(=O)c2nnn(Cc3ccc(SC)cc3)c2N)cc(OC)c1	inconclusive: 29.1 µM [rising, single point]	–
COc1ccc(N=CC2=C(O)c3ccccc3C2=O)cc1	inactive	–
Cc1ccc(OCC(=O)N2CCCC(CCC(=O)N(C)CCc3ccccn3)C2)cc1 (configuration not stated)	inconclusive: 16.4 µM [cytotoxic, single point]	–
COc1cc(NC(=O)C2CCCN(S(=O)(=O)c3ccc4c(c3)oc(=O)n4C)C2)c(C(=O)O)cc1OC (configuration not stated)	inactive	–
N#CCSc1nnc(COc2cccc3ccccc23)n1-c1ccccc1	active: 16.4 µM	–
COc1ccc(C(=O)/C=C/C(=O)N(CC(=O)NC2CCCCC2)Cc2cccs2)c(O)c1	inconclusive: 18.4 µM [cytotoxic, single point]	–
CC(C)OCCCn1c(=S)[nH]c2ccc(N3CCOCC3)cc2c1=O	active: 6.51 µM	–
COc1ccc2c(C)c(CC(=O)NCc3ccc(C)cc3)c(=O)oc2c1OC	inconclusive: 0.731 µM [cytotoxic, full curve, poor fit]	–
C=CCOC(=O)C1=C(C)OC(N)=C(C#N)C1c1ccccc1F (configuration not stated)	inactive	–
CCN(c1ccc(NS(=O)(=O)c2cc(Cl)ccc2Cl)cc1)C(C)C	inconclusive: 16.4 µM [cytotoxic, single point]	–
COCCCNC(=O)C1CCC(CNS(=O)(=O)c2ccc3c(c2)N(C(C)=O)CCO3)CC1 (configuration not stated)	inactive	–
COc1cc(OC)cc(C(=O)Nc2ccc3c(c2)N(C2CCCC2)C(=O)c2ccccc2S3)c1	inconclusive: 3.26 µM [cytotoxic, full curve, poor fit]	–
CC1CCCCN1S(=O)(=O)c1ccc(S(=O)(=O)N(Cc2ccccc2)Cc2ccco2)cc1 (configuration not stated)	inconclusive: 6.51 µM [cytotoxic, full curve]	–
COC(=O)C(C)Oc1ccc(=O)[nH]n1 (configuration not stated)	inconclusive: 29.1 µM [rising, partial curve, poor fit]	–
C/C(=N\O)c1noc(C)c1C(=O)Nc1nccs1	inactive	–
CN(CC(=O)Nc1ccccc1Cl)C(=O)c1cc(-c2cccs2)nn1-c1ccccc1	–	inconclusive: -23.7%
Cc1ccc(C(C(=O)Nc2ccc3c(c2)OCO3)N(C)C(=O)Cc2c[nH]c3ccccc23)cc1 (configuration not stated)	inconclusive: 0.0082 µM [cytotoxic, full curve, poor fit]	–
CCN(CC)C(=O)C1=C(C)N(Cc2ccc(OC)cc2)C(=O)C(CC(=O)NCCN2CCOCC2)C1 (configuration not stated)	inactive	–
Cc1ccc(CNC(=O)c2cccnc2Cl)cc1	inconclusive: 14.6 µM [rising, single point]	–
Cc1cccn2c(=O)c(C=O)c(Nc3ccccc3)nc12	inactive	–
CC(C)C[C@H](NC(=O)OCC1c2ccccc2-c2ccccc21)C(=O)O	inactive	–
CC(=O)Nc1ccc(OCC(=O)NCCc2ccccc2)cc1	inactive	–
COc1ccc(OC)c(CCNC(=O)Cn2nc(C)c3c(C)n(-c4ccc(C)cc4)nc3c2=O)c1	active: 8.2 µM	–

Looked up above.
Value of `COc1cc(NC(=O)c2nnn(Cc3ccc(SC)cc3)c2N)cc(OC)c1` under Potency: inconclusive: 29.1 µM [rising, single point]
Value of `CCN(c1ccc(NS(=O)(=O)c2cc(Cl)ccc2Cl)cc1)C(C)C` under Potency: inconclusive: 16.4 µM [cytotoxic, single point]
Value of `COc1ccc(C(=O)/C=C/C(=O)N(CC(=O)NC2CCCCC2)Cc2cccs2)c(O)c1` under Potency: inconclusive: 18.4 µM [cytotoxic, single point]

The results go on:

SMILES	Potency	activity change, negative = cytotoxicity
COC(=O)N(C)C[C@@H]1OCc2ccccc2-c2c(n(C)c3ccccc23)C(=O)N([C@H](C)CO)C[C@@H]1C	inconclusive: 23.1 µM [cytotoxic, single point]	–
CC(=O)Nc1cccc(Oc2nc(-c3ccccn3)nc3ccccc23)c1	inconclusive: 14.6 µM [cytotoxic, partial curve, poor fit]	–
Cc1nc(NCCc2ccccc2)c2nnn(Cc3ccccc3)c2n1	inconclusive: 10.3 µM [cytotoxic, partial curve, poor fit]	–
CC(C)CC(=O)Nc1nc(=S)ss1	inconclusive: 20.6 µM [cytotoxic, single point]	–
COc1ccccc1/C=C/C(=O)OCC(=O)NC1CCCCCCC1	inactive	–
CC(Oc1ccccc1F)C(=O)NNC(=O)CC(C)c1ccccc1 (configuration not stated)	inactive	–
O=C(CSc1nnc(-c2cccnc2)n1Cc1ccco1)Nc1nc(-c2ccc(F)cc2)cs1	inconclusive: 16.4 µM [cytotoxic, single point]	–
FC(F)Sc1ccc(NC(=S)NCc2ccccc2)cc1	inconclusive: 29.1 µM [cytotoxic, single point]	–
Cc1ccccc1C(C)NC(=O)COC(=O)Cn1cc(C(F)(F)F)ccc1=O (configuration not stated)	inactive	–
CCc1ccc(C2CC(=O)Nc3c2c(C)nn3-c2nc(C)cc(C)n2)cc1 (configuration not stated)	inactive	–
COC(=O)N1CC(c2ccccc2)CC1=O (configuration not stated)	inactive	–
CCOc1ccc(-c2nnc(SCC(=O)NCc3ccccc3)nc2-c2ccc(OCC)c(OC)c2)cc1OC	inactive	–
Cc1ccc(NC(=O)c2cc3ccccc3o2)cc1S(=O)(=O)N(C)C	inconclusive: 18.4 µM [cytotoxic, single point]	–
COc1ccccc1OCCCC(=O)Nc1ccc2c(c1)OCCO2	inconclusive: 29.1 µM [cytotoxic, single point]	–
Cc1cc(C)cc(-n2c(SCC(N)=O)nc3c(oc4ccccc43)c2=O)c1	inactive	–
O=C(Cc1cccs1)N/N=C\c1ccc([N+](=O)[O-])s1	inactive	–
O=C(CN1C(=O)NC2(CCCC2)C1=O)Nc1ccccc1N1CCCCC1	inactive	–
COc1ccc(CNC(=O)Nc2nc(C(N)Cc3ccc(C(F)(F)F)cc3)cs2)cc1 (configuration not stated)	inconclusive: 25.9 µM [cytotoxic, single point]	–
CCCN1CCN(C(=O)c2oc3c(Cl)cccc3c2C)CC1	inconclusive: 11.6 µM [cytotoxic, partial curve, poor fit]	–
CCOc1cc(C2/C(=C(/O)c3ccc(S(=O)(=O)N4CCCCC4)cc3)C(=O)C(=O)N2CCOC)ccc1O (configuration not stated)	inconclusive: 18.4 µM [rising, single point]	–
Cc1ccc(N(CC(=O)N2CCN(C3CCCCC3)CC2)S(=O)(=O)c2cccnc2)cc1	inconclusive: 8.2 µM [cytotoxic, partial curve]	–
COc1cc(C(=O)Nc2ccc(S(=O)(=O)N3CCCCC3C)cc2)cc(OC)c1OC (configuration not stated)	inconclusive: 20.6 µM [cytotoxic, partial curve]	–
CCOC(=O)c1oc2ccc(/C=N/O)c(Cl)c2c1C	inconclusive: 23.1 µM [cytotoxic, single point]	–
Nc1nc2c(ncn2[C@@H]2O[C@H](CNCc3ccccc3)[C@@H](O)[C@H]2O)c(=O)[nH]1	inactive	–

SMILES	Potency	activity change, negative = cytotoxicity
CC(=O)COc1nc2c(c(-c3ccco3)c1C#N)CCc1ccccc1-2	inconclusive: 13 µM [cytotoxic, partial curve]	–
COc1ccc(-c2ccc(C(=O)NCCN3CCOCC3)c3occc23)c(C)c1	inactive	–
Cc1cc(C=CC#N)cc(C)c1Nc1nc(Nc2ccc3c(c2)CCC3)c2[nH]cnc2n1	inconclusive: 23.1 µM [cytotoxic, partial curve, poor fit]	–
O=C1C(Cc2ccc(F)cc2)SC(=Nc2ccccc2)N1c1ccccc1 (configuration not stated)	inconclusive: 20.6 µM [cytotoxic, single point]	–
Fc1ccccc1CSc1ncnc2sc3c(c12)CCCC3	inactive	–
CCNC(=O)C1(C)CCN1CCC(=O)c1ccc(C)cc1 (configuration not stated)	inactive	–
COc1ccc(S(=O)(=O)c2cnc3ccc(OC)cc3c2N2CCC3(CC2)OCCO3)cc1	inconclusive: 11.6 µM [cytotoxic, single point]	–
Cc1ccc(CNC(=O)C2CCC(=O)N2CCc2ccccc2)cc1 (configuration not stated)	inconclusive: 16.4 µM [cytotoxic, single point]	–
COc1cc(/C=N\NC(=O)C2CC3C=CC2C3)ccc1O (configuration not stated)	inconclusive: 20.6 µM [rising, partial curve, poor fit]	–
O=C(CNC(=O)c1ccc2ccccc2c1)NCc1ccc(F)cc1	inconclusive: 32.6 µM [cytotoxic, single point]	–
COc1ccccc1C(C)NC(=O)c1ccc(C)o1 (configuration not stated)	inconclusive: 29.1 µM [cytotoxic, single point]	–
CCC(=O)Nc1c(S(=O)(=O)c2ccccc2)c2nc3ccccc3nc2n1Cc1ccccc1	active: 4.11 µM	–
O=C(C1CCC1)N1CCN(S(=O)(=O)c2ccccc2)CC1	inconclusive: 20.6 µM [cytotoxic, single point]	–
CCCCNC(=O)C(NC(=O)c1cnc(C)cn1)C(=O)c1ccccc1 (configuration not stated)	inconclusive: 14.6 µM [cytotoxic, partial curve, poor fit]	–
Cc1nn(C(C)C)c(C)c1CN1CCN(Cc2ccsc2)C(CCO)C1 (configuration not stated)	inactive	–
CC(C)c1ccc(-c2cc(C(=O)N3N=C(C(F)F)CC3(O)C(F)F)c3ccccc3n2)cc1 (configuration not stated)	inconclusive: 17.8 µM [cytotoxic, single point]	–
COc1cc(/C=C(\C#N)C(=O)Nc2ccc(C(=O)O)cc2)ccc1OC(=O)c1cccc(F)c1	inactive	–
Cc1ccc2c(c1)[nH]c1c(=O)n(Cc3ccccn3)cnc12	inactive	–
COCCNC(=O)CN1CCN(Cc2cccc(Cl)c2)C1=O	inactive	–
COc1ccc(Cl)cc1N1C(=NC(=O)C2CCCO2)SC2CS(=O)(=O)CC21 (configuration not stated)	inactive	–
O=S(=O)(c1ccc(Br)cc1)c1nc(-c2ccco2)oc1NCC1CCCO1 (configuration not stated)	inconclusive: 29.1 µM [cytotoxic, partial curve, poor fit]	–
Cc1ccc(S(=O)(=O)CC(=O)N2CCCC2)cc1	inconclusive: 25.9 µM [rising, single point]	–
Cc1ccc(NS(=O)(=O)c2ccc3c(c2)CCC(=O)N3)cc1F	inconclusive: 29.1 µM [rising, single point]	–
O=C(COc1ccc2ccccc2c1)N[C@@H](C(=O)O)c1ccc(O)cc1	inactive	–
